# From the supplement of paper PMC8728848
# The other results are listed elsewhere or left out.
# Assays:
# Test in all cases: glycan array binding signal (z-score within array); higher = stronger binding
# Details in all cases: glycan notation: IUPAC condensed, linker removed
# [1] = target: Gal(b1-3)GlcNAc(a1-6)Gal(b1-4)GlcNAc
# Procedure, shortened: (§1)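 The Consortium for Functional Glycomics database supplied 3228 glycan arrays, of which those lacking an available protein sequence were dropped. The binding signal, a within-array Z-score, was averaged across arrays of the same protein sequence and across linkers. Negative scores can be read as non-binding.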
# [2] = target: Gal(b1-3)GlcNAc(b1-2)Man(a1-3)[Gal(b1-3)GlcNAc(b1-2)Man(a1-6)]Man(b1-4)GlcNAc(b1-4)GlcNAc
# Procedure, shortened: as §1
# [3] = target: Gal(b1-3)GlcNAc(b1-2)Man(a1-3)[Gal(b1-3)GlcNAc(b1-2)Man(a1-6)]Man(b1-4)GlcNAc(b1-4)[Fuc(a1-6)]GlcNAc
# Procedure, shortened: as §1
# [4] = target: Gal(b1-3)GlcNAc(b1-2)[Gal(b1-3)GlcNAc(b1-6)]Man(a1-6)[Gal(b1-3)GlcNAc(b1-2)Man(a1-3)]Man(b1-4)GlcNAc(b1-4)GlcNAc
# Procedure, shortened: as §1
# [5] = target: Gal(b1-3)GlcNAc(b1-3)Gal(b1-3)GlcNAc
# Procedure, shortened: as §1
# [6] = target: Gal(b1-3)GlcNAc(b1-3)Gal(b1-4)Glc
# Procedure, shortened: as §1
# [7] = target: Gal(b1-3)GlcNAc(b1-3)Gal(b1-4)GlcNAc
# Procedure, shortened: as §1
# [8] = target: Gal(b1-3)GlcNAc(b1-3)Gal(b1-4)GlcNAc(b1-6)[Gal(b1-3)GlcNAc(b1-3)]Gal(b1-4)Glc
# Procedure, shortened: as §1
# [9] = target: Gal(b1-3)GlcNAc(b1-3)Gal(b1-4)[Fuc(a1-3)]GlcNAc(b1-6)[Gal(b1-3)GlcNAc(b1-3)]Gal(b1-4)Glc
# Procedure, shortened: as §1
# [10] = target: Gal(b1-3)GlcNAc(b1-3)GalNAc
# Procedure, shortened: as §1
# [11] = target: Gal(b1-3)GlcNAc(b1-6)Gal(b1-4)GlcNAc
# Procedure, shortened: as §1
# [12] = target: Gal(b1-3)[Fuc(a1-4)]GlcNAc
# Procedure, shortened: as §1
# [13] = target: Gal(b1-3)[Fuc(a1-4)]GlcNAc(b1-2)Man(a1-3)[Gal(b1-3)[Fuc(a1-4)]GlcNAc(b1-2)Man(a1-6)]Man(b1-4)GlcNAc(b1-4)GlcNAc
# Procedure, shortened: as §1
# [14] = target: Gal(b1-3)[Fuc(a1-4)]GlcNAc(b1-2)Man(a1-3)[Gal(b1-3)[Fuc(a1-4)]GlcNAc(b1-2)Man(a1-6)]Man(b1-4)GlcNAc(b1-4)[Fuc(a1-6)]GlcNAc
# Procedure, shortened: as §1
# [15] = target: Gal(b1-3)[Fuc(a1-4)]GlcNAc(b1-3)Gal(b1-3)[Fuc(a1-4)]GlcNAc
# Procedure, shortened: as §1
# [16] = target: Gal(b1-3)[Fuc(a1-4)]GlcNAc(b1-3)Gal(b1-4)GlcNAc
# Procedure, shortened: as §1
# [17] = target: Gal(b1-3)[Fuc(a1-4)]GlcNAc(b1-3)Gal(b1-4)[Fuc(a1-3)]GlcNAc
# Procedure, shortened: as §1
# [18] = target: Gal(b1-3)[GlcNAc(b1-6)]GalNAc
# Procedure, shortened: as §1
# [19] = target: Gal(b1-3)[Neu5Ac(a2-6)]GalNAc
# Procedure, shortened: as §1
# [20] = target: Gal(b1-3)[Neu5Ac(a2-6)]GlcNAc(b1-6)Gal(b1-4)Glc
# Procedure, shortened: as §1
# [21] = target: Gal(b1-3)[Neu5Ac(b2-6)]GalNAc
# Procedure, shortened: as §1
# Gal(b1-4)Gal = target: Gal(b1-4)Gal
# Procedure, shortened: as §1
# [22] = target: Gal(b1-4)GalNAc(a1-3)[Fuc(a1-2)]Gal(b1-4)GlcNAc
# Procedure, shortened: as §1
# [23] = target: Gal(b1-4)GalNAc(b1-3)[Fuc(a1-2)]Gal(b1-4)GlcNAc
# Procedure, shortened: as §1
# Gal(b1-4)Glc = target: Gal(b1-4)Glc
# Procedure, shortened: as §1
# Gal(b1-4)Glc6S = target: Gal(b1-4)Glc6S
# Procedure, shortened: as §1
# Gal(b1-4)GlcNAc = target: Gal(b1-4)GlcNAc
# Procedure, shortened: as §1
# [24] = target: Gal(b1-4)GlcNAc(a1-6)Gal(b1-4)GlcNAc
# Procedure, shortened: as §1
# [25] = target: Gal(b1-4)GlcNAc(b1-2)Man(a1-3)Man(b1-4)GlcNAc(b1-4)GlcNAc
# Procedure, shortened: as §1
# [26] = target: Gal(b1-4)GlcNAc(b1-2)Man(a1-3)[Gal(b1-4)GlcNAc(b1-2)Man(a1-6)]Man(b1-4)GlcNAc(b1-4)GlcNAc
# Procedure, shortened: as §1
# [27] = target: Gal(b1-4)GlcNAc(b1-2)Man(a1-3)[Gal(b1-4)GlcNAc(b1-2)Man(a1-6)]Man(b1-4)GlcNAc(b1-4)[Fuc(a1-6)]GlcNAc
# Procedure, shortened: as §1
# [28] = target: Gal(b1-4)GlcNAc(b1-2)Man(a1-3)[Gal(b1-4)GlcNAc(b1-2)][GlcNAc(b1-4)]Man(b1-4)GlcNAc(b1-4)GlcNAc
# Procedure, shortened: as §1
# [29] = target: Gal(b1-4)GlcNAc(b1-2)Man(a1-3)[GlcNAc(b1-2)Man(a1-6)]Man(b1-4)GlcNAc(b1-4)GlcNAc
# Procedure, shortened: as §1
# [30] = target: Gal(b1-4)GlcNAc(b1-2)Man(a1-3)[Man(a1-6)]Man(b1-4)GlcNAc(b1-4)GlcNAc
# Procedure, shortened: as §1
# [31] = target: Gal(b1-4)GlcNAc(b1-2)Man(a1-6)Man(b1-4)GlcNAc(b1-4)GlcNAc
# Procedure, shortened: as §1
# [32] = target: Gal(b1-4)GlcNAc(b1-2)Man(a1-6)[GlcNAc(b1-2)Man(a1-3)]Man(b1-4)GlcNAc(b1-4)GlcNAc
# Procedure, shortened: as §1
# [33] = target: Gal(b1-4)GlcNAc(b1-2)Man(a1-6)[Man(a1-3)]Man(b1-4)GlcNAc(b1-4)GlcNAc
# Procedure, shortened: as §1
# [34] = target: Gal(b1-4)GlcNAc(b1-2)[Gal(b1-4)GlcNAc(b1-4)]Man(a1-3)[Gal(b1-4)GlcNAc(b1-2)Man(a1-6)]Man(b1-4)GlcNAc(b1-4)GlcNAc
# Procedure, shortened: as §1
binder,measurement,setting,value
"rPitB (Streptococcus pneumoniae), A0A0I7U739 (protein) MSEIEIINAKKIYHDVPVIENLNITIPKGSLFTLLGASGCGKTTLLRMIAGFNSIKDGEFYFDDTKINNMEPSKRNIGLVFQNYAIFPHLTVRDNVAFGLMQKKVPKEELIQQTNKYLELMQIAQYAD",glycan array binding signal (z-score),[1],-0.219
same,glycan array binding signal (z-score),[2],0.944
same,glycan array binding signal (z-score),[3],0.638
same,glycan array binding signal (z-score),[4],1.34
same,glycan array binding signal (z-score),[5],-0.045
same,glycan array binding signal (z-score),[6],0.856
same,glycan array binding signal (z-score),[7],0.193
same,glycan array binding signal (z-score),[8],0.131
same,glycan array binding signal (z-score),[9],-0.366
same,glycan array binding signal (z-score),[10],0.176
same,glycan array binding signal (z-score),[11],-0.234
same,glycan array binding signal (z-score),[12],-0.025
same,glycan array binding signal (z-score),[13],3.68
same,glycan array binding signal (z-score),[14],2.09
same,glycan array binding signal (z-score),[15],1.1
same,glycan array binding signal (z-score),[16],-0.558
same,glycan array binding signal (z-score),[17],0.005
same,glycan array binding signal (z-score),[18],-0.326
same,glycan array binding signal (z-score),[19],0.092
same,glycan array binding signal (z-score),[20],-0.142
same,glycan array binding signal (z-score),[21],-0.372
same,glycan array binding signal (z-score),Gal(b1-4)Gal,-0.062
same,glycan array binding signal (z-score),[22],0.733
same,glycan array binding signal (z-score),[23],-0.409
same,glycan array binding signal (z-score),Gal(b1-4)Glc,-0.141
same,glycan array binding signal (z-score),Gal(b1-4)Glc6S,-0.024
same,glycan array binding signal (z-score),Gal(b1-4)GlcNAc,-0.449
same,glycan array binding signal (z-score),[24],0.072
same,glycan array binding signal (z-score),[25],0.13
same,glycan array binding signal (z-score),[26],0.354
same,glycan array binding signal (z-score),[27],0.8
same,glycan array binding signal (z-score),[28],0.058
same,glycan array binding signal (z-score),[29],-0.568
same,glycan array binding signal (z-score),[30],-0.905
same,glycan array binding signal (z-score),[31],-0.551
same,glycan array binding signal (z-score),[32],-0.347
same,glycan array binding signal (z-score),[33],-0.362
same,glycan array binding signal (z-score),[34],-0.505

# Pulled one by one from above (two):
binder,measurement,setting,value
"rPitB (Streptococcus pneumoniae), A0A0I7U739 (protein) MSEIEIINAKKIYHDVPVIENLNITIPKGSLFTLLGASGCGKTTLLRMIAGFNSIKDGEFYFDDTKINNMEPSKRNIGLVFQNYAIFPHLTVRDNVAFGLMQKKVPKEELIQQTNKYLELMQIAQYAD",glycan array binding signal (z-score),[31],-0.551
same,glycan array binding signal (z-score),[20],-0.142
